# Data: PubChem BioAssay AID445 (National Center for Advancing Translational Sciences (NCATS), 2006)
# Some of the results follow. Shown are side measurements of this screen, not its main read-out; they come without a call. Compounds called inactive in the main read-out are mostly missing here. The note in brackets gives the kind of curve behind each potency; many fits are weak.
# Experiment: IkB Signaling
# Conditions: ABC-DLBCL IkBa-CBG/CBR dual luciferase ratio (green luciferase fused to IkBa over red control in OCI-Ly3 lymphoma cells), 4 h
# Method in brief: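 In this assay, an IκBα–CBG68 fusion accumulates when IKK-driven degradation is blocked; native CBR normalizes for cell number. OCI-Ly3 cells were treated 4 h with compound and doxycycline, then green and red light read after Chroma-Glo addition.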
# [1] = measured here: control luc red channel unless noted
# [2] = measured here: IkB-luc green channel
# [3] = measured here: control luc red channel
smiles,measurement,setting,value
CCCn1c(CN2CCCCC2C)nc2c1c(=O)n(C)c(=O)n2C (stereo not given),AC50,[1],"20 µM [falling, single point]"
Cc1oc2ncn(CC(C)C)c(=O)c2c1C(=O)NCCCN(C)Cc1ccccc1,AC50,[1],"0.0398 µM [rising, partial curve, poor fit]"
CC(C)(C)c1ccc(C(=O)Nc2nnc3n2CCS3)cc1,AC50,[2],"31.6 µM [rising, single point]"
same,AC50,[3],"1.26 µM [rising, full curve]"
CC(=O)Nc1ccc(OC/C=C(\C)Cl)cc1,AC50,[1],"0.126 µM [rising, full curve, poor fit]"
CCOC(=O)Cn1c(=O)oc2cc(S(=O)(=O)Nc3ccccc3F)ccc21,AC50,[1],"15.8 µM [falling, single point]"
CCc1nc2nc(C)cc(Nc3ccc(F)c(Cl)c3)n2n1,AC50,[1],"1.26 µM [rising, full curve]"
O=C1CC(c2ccc(Br)cc2)c2c(ccc3ccccc23)N1 (stereo not given),AC50,[1],"15.8 µM [falling, partial curve]"
COc1ccc(C(=O)N(Cc2nc(-c3ccc(C)cc3)no2)C2CCCCC2)cc1OC,AC50,[1],"15.8 µM [falling, partial curve]"
Cc1cccc(C(=O)Nc2ccccc2OCc2cc(=O)n3cc(C)ccc3n2)c1,AC50,[1],"12.6 µM [falling, partial curve]"
CC(=O)N1CCCc2cc(S(=O)(=O)N3CCCC(C(=O)Nc4ccc(C)c(F)c4)C3)ccc21 (stereo not given),AC50,[1],"12.6 µM [falling, partial curve]"
CC(=O)Nc1ccc2nc(SCCOc3ccccc3Cl)sc2c1,AC50,[1],"20 µM [falling, partial curve]"
CCOC(=O)c1c(C)[nH]c(C)c1S(=O)(=O)N(C)CC(=O)Nc1ccc(C)c(F)c1,AC50,[1],"3.16 µM [falling, full curve, poor fit]"
O=C(c1ccc(-c2ccccc2)cc1)N1CCN(C(=O)c2ccco2)CC1,AC50,[1],"25.1 µM [falling, partial curve]"
Cc1cc(C)c(NC(=O)C2CCCN(C(=O)c3cnn(-c4ccccc4)c3-n3cccc3)C2)c(C)c1 (stereo not given),AC50,[1],"12.6 µM [falling, partial curve]"
CCc1ccc(S(=O)(=O)c2cn(Cc3ccc(OC)cc3)c3cc(OC)c(OC)cc3c2=O)cc1,AC50,[1],"12.6 µM [falling, single point]"
COc1ccc(NC(=O)CCc2c(C)nc3cc(-c4cccc(F)c4)nn3c2C)cc1Cl,AC50,[1],"2 µM [falling, partial curve]"
CC(C)OCCCn1c(SCc2ccccc2Cl)nc2c(sc3ccccc32)c1=O,AC50,[1],"3.16 µM [rising, partial curve]"
Fc1cccc(Cl)c1CSc1nnc(COc2cccc3cccnc23)o1,AC50,[1],"39.8 µM [falling, single point] [measured here: IkB-luc green channel]"
Cn1cc(-c2nc3ccccc3[nH]2)c2ccccc21,AC50,[1],"15.8 µM [falling, partial curve]"
CCOc1ccc(NS(=O)(=O)c2ccc(SC)cc2)cc1,AC50,[1],"7.94 µM [falling, partial curve]"
COc1ccc(CCNC(=O)c2cc(=O)[nH]c3ccc(S(=O)(=O)N4CCCCC4)cc23)cc1OC,AC50,[1],"2 µM [rising, full curve, poor fit]"
CCOc1nc(C)ccc1-c1noc(-c2ccncc2)n1,AC50,[1],"2 µM [rising, full curve, poor fit]"
CCN(c1cc(C)cc(C)c1)S(=O)(=O)c1nnc(NC(=O)c2ccccc2C)s1,AC50,[1],"39.8 µM [falling, single point]"
CCn1c(C)nc2cc(C(=O)OC(C(F)(F)C(F)F)C(F)(F)C(F)F)ccc21,AC50,[1],"39.8 µM [falling, single point]"
CC(=O)Nc1ccc(S(=O)(=O)Nc2nc3ccccc3nc2Sc2nncn2C)cc1,AC50,[1],"0.398 µM [falling, full curve]"
CCc1cccc(C)c1NC(=O)c1cc(S(=O)(=O)N2CCN(c3ccccc3)CC2)ccc1F,AC50,[1],"39.8 µM [falling, partial curve]"
Cc1cccc(CCNC(=O)CCc2c(C)nc3c(c(C)nn3-c3ccccc3)c2C)c1,AC50,[1],"7.94 µM [falling, full curve]"
O=C1CCN(Cc2nnnn2CC2CCCO2)c2ccccc2N1 (stereo not given),AC50,[1],"31.6 µM [falling, single point]"
CN(C)c1ccc(C(=O)NCc2ccc3c(c2)CCN3C(=O)c2ccc(Cl)cc2)cc1,AC50,[1],"3.98 µM [falling, partial curve]"
CN1C(=O)c2ccccc2Sc2ccc(NC(=O)N3CCN(c4cccc(Cl)c4)CC3)cc21,AC50,[1],"12.6 µM [falling, partial curve]"
Clc1ccc(CNc2ncnc3onc(-c4ccc(Cl)cc4)c23)cc1,AC50,[1],"31.6 µM [falling, single point]"
COc1ccc(C(=O)NCc2ccc3c(c2)CCN3C(=O)c2ccc(Cl)cc2)c(OC)c1,AC50,[1],"31.6 µM [falling, partial curve]"
COc1cc(OC)cc(C(=O)Nc2cccc(-c3cn4ccsc4n3)c2)c1,AC50,[1],"39.8 µM [falling, single point]"
O=C(COc1ccccc1Cl)Nc1ccc2nc(SCC(=O)N3CCOCC3)sc2c1,AC50,[1],"0.631 µM [falling, full curve]"
CCOc1cccc2cc(C(=O)Nc3cc(C)on3)c(=O)oc12,AC50,[1],"1 µM [falling, full curve]"
Cc1ccccc1Cn1cc(S(=O)(=O)c2ccc(F)cc2)c(=O)c2cc3c(cc21)OCO3,AC50,[1],"20 µM [falling, partial curve]"
CCc1nccn1S(=O)(=O)c1cc(Br)ccc1Br,AC50,[1],"1 µM [rising, full curve]"
O=C(c1ccccc1-c1nc(-c2ccc(Cl)cc2)no1)N1CCCC1,AC50,[1],"39.8 µM [falling, single point]"
COC(=O)c1sccc1S(=O)(=O)N(CC(=O)Nc1cc(F)ccc1F)c1ccc(C)c(C)c1,AC50,[1],"2.51 µM [falling, full curve]"
CCN(CC)c1nn2c(=O)c(C(=O)NCc3ccccc3Br)cnc2s1,AC50,[1],"31.6 µM [falling, partial curve]"
CCOc1ccc(NC(=O)N2CCN(C(=O)c3nsc4ccccc34)CC2)cc1,AC50,[1],"0.126 µM [falling, partial curve]"
Cc1cccc(NC(=O)c2ccc(Cn3nc(N4CCN(c5ccccc5)CC4)ccc3=O)o2)c1C,AC50,[1],"31.6 µM [falling, single point]"
O=S(=O)(Nc1cccc(-c2ccc(N3CCOCC3)nn2)c1)c1ccc(F)c(C(F)(F)F)c1,AC50,[1],"25.1 µM [falling, single point]"
COc1ccc(-c2cc(C(F)(F)F)nc(SCC(=O)N(C)Cc3ccccc3)n2)cc1,AC50,[1],"3.16 µM [falling, partial curve]"
COc1ccc(-c2nn(C)c(=O)c3ccccc23)cc1NC(=O)Cn1nc(C)c2ccccc2c1=O,AC50,[1],"10 µM [falling, partial curve]"
COc1ccc(OC)c(CNC(=O)NCc2noc3ccc(C)cc23)c1,AC50,[1],"0.01 µM [falling, full curve, poor fit]"
O=C(CSc1cn(CC(=O)N2CCCCC2)c2ccccc12)NCc1ccccc1Cl,AC50,[1],"39.8 µM [falling, single point]"
COc1ccccc1OCC(=O)c1[nH]c(C)c(C(C)=O)c1C,AC50,[1],"31.6 µM [falling, partial curve]"
O=C(CN1C(=O)c2cccnc2Sc2ccccc21)Nc1cc(F)ccc1F,AC50,[1],"20 µM [falling, partial curve]"
COc1ccccc1N(CC(=O)Nc1ccccc1C(F)(F)F)S(=O)(=O)c1ccc(C)cc1,AC50,[1],"25.1 µM [falling, partial curve]"
Cc1ccc(C)c(N2CCN(C(=O)Cn3nc(C)c4sc5ccccc5c4c3=O)CC2)c1,AC50,[1],"10 µM [falling, partial curve]"
CCC(O)c1nc2ccccc2n1Cc1cc(C)ccc1C (stereo not given),AC50,[1],"39.8 µM [falling, single point]"
CC(C)Nc1ncnc2c1cnn2-c1ccccc1,AC50,[1],"12.6 µM [falling, partial curve]"
CCCOc1ccccc1-c1nc(SCCC(=O)O)n[nH]1,AC50,[1],"25.1 µM [falling, partial curve]"
CCN(CC)c1ccc(C2C(C(N)=O)=C(C)Nc3nc(SCc4ccccc4Cl)nn32)cc1 (stereo not given),AC50,[1],"0.251 µM [rising, full curve, poor fit]"
Cc1ccc(C(=O)Nc2nc3ccccc3n2CCN2CCCC2)cc1,AC50,[2],"31.6 µM [rising, partial curve]"
same,AC50,[3],"3.98 µM [falling, partial curve]"
COc1ccc(CNC(=O)C2(c3cccs3)CCOCC2)cc1,AC50,[1],"31.6 µM [falling, single point]"
CCNc1c2c3c(cccc3n(C)c1=O)C(=O)c1ccccc1-2,AC50,[1],"15.8 µM [falling, partial curve]"
CCN(CC)S(=O)(=O)c1cccc(C(=O)Nc2ccccc2C(=O)Nc2ccc(OC)cc2)c1,AC50,[1],"10 µM [falling, partial curve]"
Cc1nn(CC(O)Cn2c3c(c4ccccc42)CCN(C)C3=O)c(C)c1Br (stereo not given),AC50,[1],"12.6 µM [falling, partial curve]"
CCOc1ccc(NC(=O)c2c(NCc3cccs3)sc3c2CCC(C)C3)cc1 (stereo not given),AC50,[1],"39.8 µM [falling, single point]"
CCCCN(C)CCCNC(=O)c1cn(CC)c2ccc(S(=O)(=O)N3CCc4ccccc4C3)cc2c1=O,AC50,[1],"6.31 µM [falling, full curve]"
COc1ccccc1CNC(=O)c1cc(S(=O)(=O)N2CCCC(C)C2)cn1C (stereo not given),AC50,[1],"10 µM [falling, partial curve, poor fit]"

# Part of the list above, tab-delimited.
smiles	measurement	setting	value
CC(=O)Nc1ccc(OC/C=C(\C)Cl)cc1	AC50	[1]	0.126 µM [rising, full curve, poor fit]
O=C1CC(c2ccc(Br)cc2)c2c(ccc3ccccc23)N1 (stereo not given)	AC50	[1]	15.8 µM [falling, partial curve]
Cc1nn(CC(O)Cn2c3c(c4ccccc42)CCN(C)C3=O)c(C)c1Br (stereo not given)	AC50	[1]	12.6 µM [falling, partial curve]
